From PMC4728290
No constants are given. Whether binding was seen depends on the method and setting. In cells and extracts the contact can be indirect. Some results given as binding are weak or reduced against the parent protein; the word gives no strength.

The chains behind the UniProt entries cited, without tags or fusion partners. Residues count along the entry.
UniProt P06213, residues 28-1382: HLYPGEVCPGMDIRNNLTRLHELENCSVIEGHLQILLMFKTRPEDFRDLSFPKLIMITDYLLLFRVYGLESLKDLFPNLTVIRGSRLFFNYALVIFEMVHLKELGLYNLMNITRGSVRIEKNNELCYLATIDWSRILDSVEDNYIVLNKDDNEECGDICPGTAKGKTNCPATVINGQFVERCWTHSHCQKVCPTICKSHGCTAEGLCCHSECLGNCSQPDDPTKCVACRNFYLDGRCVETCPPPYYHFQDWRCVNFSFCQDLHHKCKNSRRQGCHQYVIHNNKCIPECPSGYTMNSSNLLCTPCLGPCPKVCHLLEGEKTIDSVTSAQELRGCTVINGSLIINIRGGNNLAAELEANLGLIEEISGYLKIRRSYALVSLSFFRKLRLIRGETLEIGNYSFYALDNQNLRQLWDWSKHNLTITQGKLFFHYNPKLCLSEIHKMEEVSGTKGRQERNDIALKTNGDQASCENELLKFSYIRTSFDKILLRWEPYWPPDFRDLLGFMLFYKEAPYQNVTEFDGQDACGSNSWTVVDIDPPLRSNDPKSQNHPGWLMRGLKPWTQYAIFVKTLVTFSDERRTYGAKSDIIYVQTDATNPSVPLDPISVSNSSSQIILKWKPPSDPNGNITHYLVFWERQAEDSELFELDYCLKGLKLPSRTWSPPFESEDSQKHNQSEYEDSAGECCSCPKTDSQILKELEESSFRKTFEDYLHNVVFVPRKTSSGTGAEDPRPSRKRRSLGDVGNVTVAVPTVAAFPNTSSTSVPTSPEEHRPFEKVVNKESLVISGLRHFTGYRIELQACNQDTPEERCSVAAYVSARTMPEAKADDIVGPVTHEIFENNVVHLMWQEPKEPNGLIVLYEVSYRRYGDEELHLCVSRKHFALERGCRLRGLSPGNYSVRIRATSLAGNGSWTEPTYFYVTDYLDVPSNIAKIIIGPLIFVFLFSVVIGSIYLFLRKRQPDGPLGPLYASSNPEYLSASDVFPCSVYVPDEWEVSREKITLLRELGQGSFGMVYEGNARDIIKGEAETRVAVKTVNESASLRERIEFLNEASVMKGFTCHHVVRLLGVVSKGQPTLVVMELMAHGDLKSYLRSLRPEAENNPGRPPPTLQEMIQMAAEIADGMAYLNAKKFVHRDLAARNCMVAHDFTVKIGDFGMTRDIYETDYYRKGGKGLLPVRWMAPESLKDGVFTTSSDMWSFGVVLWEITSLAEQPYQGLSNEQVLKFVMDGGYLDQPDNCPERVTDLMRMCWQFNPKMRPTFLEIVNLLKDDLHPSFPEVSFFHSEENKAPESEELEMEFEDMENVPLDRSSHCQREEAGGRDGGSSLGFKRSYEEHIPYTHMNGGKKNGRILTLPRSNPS
UniProt P62993: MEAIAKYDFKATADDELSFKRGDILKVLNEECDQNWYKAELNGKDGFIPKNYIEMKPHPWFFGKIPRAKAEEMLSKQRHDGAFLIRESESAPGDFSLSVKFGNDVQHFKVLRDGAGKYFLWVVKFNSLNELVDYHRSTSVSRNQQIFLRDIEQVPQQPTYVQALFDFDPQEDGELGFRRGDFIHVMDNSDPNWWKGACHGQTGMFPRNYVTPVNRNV

Molecular target: human insulin receptor fused with Renilla luciferase 8 (human) (UniProt P06213)
Test: FRET or BRET; BRET in real time in live HEK293 cells co-expressing hIR–Rluc8 (donor) and IRS1–YFP or Grb2–Venus (acceptor); cells in PBS, coelenterazine-h 5 uM; basal or stimulated with bovine insulin (100 nM or 0.001-10,000 nM); with or without pre-treatment with defatted camel milk or its fractions (30 min, 37°C)

- binding: binds
Substance: growth factor receptor-bound protein 2 fused with Venus (from UniProt P62993 1-217)
